Measured values from the supplement of paper PMC10849652.
This is one part of the list.

Protein sequences, listed by entry. Tags and fused reporters are not part of them. Lines headed by an entry give the natural chain unless they say otherwise; changes in a name come on top.
UniProt Q15650: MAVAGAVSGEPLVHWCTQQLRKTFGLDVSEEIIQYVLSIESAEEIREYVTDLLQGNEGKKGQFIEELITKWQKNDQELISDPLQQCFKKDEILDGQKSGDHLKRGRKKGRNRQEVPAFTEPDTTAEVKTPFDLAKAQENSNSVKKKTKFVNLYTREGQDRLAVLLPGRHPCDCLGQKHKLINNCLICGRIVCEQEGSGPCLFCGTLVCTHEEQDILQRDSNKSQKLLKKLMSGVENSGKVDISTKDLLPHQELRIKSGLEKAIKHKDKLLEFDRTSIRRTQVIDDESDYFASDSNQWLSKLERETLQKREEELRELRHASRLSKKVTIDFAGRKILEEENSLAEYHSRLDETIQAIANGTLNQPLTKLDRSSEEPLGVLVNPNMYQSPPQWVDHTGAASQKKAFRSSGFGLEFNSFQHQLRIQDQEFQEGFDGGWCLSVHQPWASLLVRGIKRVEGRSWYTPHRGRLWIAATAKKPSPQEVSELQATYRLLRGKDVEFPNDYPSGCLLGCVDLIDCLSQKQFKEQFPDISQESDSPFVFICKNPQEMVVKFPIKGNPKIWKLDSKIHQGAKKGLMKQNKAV
UniProt P11387: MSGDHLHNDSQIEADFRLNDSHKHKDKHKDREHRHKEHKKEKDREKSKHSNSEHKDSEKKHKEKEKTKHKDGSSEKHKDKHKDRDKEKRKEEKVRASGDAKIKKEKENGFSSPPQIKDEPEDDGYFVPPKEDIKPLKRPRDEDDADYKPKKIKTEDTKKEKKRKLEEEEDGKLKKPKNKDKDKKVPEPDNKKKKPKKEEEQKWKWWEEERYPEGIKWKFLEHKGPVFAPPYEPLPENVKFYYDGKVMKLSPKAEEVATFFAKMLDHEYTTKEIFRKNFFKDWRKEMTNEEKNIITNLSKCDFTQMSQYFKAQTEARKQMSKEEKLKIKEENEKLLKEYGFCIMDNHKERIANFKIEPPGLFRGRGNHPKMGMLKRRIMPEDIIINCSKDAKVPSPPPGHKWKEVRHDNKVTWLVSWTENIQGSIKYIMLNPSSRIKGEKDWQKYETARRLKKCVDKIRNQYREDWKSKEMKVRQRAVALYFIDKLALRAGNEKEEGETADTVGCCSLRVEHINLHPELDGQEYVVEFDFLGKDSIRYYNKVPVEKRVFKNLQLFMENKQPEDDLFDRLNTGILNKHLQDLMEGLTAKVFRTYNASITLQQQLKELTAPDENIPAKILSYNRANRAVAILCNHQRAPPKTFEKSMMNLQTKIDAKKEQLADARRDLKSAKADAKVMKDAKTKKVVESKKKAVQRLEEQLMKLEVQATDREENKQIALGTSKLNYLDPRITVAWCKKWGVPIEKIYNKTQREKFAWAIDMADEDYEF
UniProt O14657: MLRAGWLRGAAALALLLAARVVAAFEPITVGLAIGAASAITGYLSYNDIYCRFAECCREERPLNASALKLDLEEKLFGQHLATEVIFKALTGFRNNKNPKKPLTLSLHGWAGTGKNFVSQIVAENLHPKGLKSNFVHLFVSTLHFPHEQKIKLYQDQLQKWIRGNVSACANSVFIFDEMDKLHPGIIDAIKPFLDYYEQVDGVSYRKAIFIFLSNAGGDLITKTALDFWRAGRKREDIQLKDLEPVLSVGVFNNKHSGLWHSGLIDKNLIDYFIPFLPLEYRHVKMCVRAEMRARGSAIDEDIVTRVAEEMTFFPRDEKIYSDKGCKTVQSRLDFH
UniProt Q7Z2T5: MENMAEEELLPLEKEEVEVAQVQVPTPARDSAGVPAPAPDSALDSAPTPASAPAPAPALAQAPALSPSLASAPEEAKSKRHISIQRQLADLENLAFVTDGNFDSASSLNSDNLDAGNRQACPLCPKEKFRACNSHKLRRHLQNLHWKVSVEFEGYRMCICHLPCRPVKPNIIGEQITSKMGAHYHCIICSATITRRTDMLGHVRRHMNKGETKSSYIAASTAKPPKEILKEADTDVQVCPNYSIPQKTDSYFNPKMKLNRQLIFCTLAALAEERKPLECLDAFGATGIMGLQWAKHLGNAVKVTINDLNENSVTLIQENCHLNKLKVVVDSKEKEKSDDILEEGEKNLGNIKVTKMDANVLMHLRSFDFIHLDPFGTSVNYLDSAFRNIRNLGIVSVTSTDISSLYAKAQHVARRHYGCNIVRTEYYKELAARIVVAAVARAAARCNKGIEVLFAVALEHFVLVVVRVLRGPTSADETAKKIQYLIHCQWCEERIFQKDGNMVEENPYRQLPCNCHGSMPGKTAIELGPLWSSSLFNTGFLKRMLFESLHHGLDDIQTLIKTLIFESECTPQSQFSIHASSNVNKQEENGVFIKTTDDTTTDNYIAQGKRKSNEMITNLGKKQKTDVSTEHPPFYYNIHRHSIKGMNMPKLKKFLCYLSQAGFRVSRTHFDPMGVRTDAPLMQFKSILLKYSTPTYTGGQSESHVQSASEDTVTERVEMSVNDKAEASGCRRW
UniProt Q9UKE5: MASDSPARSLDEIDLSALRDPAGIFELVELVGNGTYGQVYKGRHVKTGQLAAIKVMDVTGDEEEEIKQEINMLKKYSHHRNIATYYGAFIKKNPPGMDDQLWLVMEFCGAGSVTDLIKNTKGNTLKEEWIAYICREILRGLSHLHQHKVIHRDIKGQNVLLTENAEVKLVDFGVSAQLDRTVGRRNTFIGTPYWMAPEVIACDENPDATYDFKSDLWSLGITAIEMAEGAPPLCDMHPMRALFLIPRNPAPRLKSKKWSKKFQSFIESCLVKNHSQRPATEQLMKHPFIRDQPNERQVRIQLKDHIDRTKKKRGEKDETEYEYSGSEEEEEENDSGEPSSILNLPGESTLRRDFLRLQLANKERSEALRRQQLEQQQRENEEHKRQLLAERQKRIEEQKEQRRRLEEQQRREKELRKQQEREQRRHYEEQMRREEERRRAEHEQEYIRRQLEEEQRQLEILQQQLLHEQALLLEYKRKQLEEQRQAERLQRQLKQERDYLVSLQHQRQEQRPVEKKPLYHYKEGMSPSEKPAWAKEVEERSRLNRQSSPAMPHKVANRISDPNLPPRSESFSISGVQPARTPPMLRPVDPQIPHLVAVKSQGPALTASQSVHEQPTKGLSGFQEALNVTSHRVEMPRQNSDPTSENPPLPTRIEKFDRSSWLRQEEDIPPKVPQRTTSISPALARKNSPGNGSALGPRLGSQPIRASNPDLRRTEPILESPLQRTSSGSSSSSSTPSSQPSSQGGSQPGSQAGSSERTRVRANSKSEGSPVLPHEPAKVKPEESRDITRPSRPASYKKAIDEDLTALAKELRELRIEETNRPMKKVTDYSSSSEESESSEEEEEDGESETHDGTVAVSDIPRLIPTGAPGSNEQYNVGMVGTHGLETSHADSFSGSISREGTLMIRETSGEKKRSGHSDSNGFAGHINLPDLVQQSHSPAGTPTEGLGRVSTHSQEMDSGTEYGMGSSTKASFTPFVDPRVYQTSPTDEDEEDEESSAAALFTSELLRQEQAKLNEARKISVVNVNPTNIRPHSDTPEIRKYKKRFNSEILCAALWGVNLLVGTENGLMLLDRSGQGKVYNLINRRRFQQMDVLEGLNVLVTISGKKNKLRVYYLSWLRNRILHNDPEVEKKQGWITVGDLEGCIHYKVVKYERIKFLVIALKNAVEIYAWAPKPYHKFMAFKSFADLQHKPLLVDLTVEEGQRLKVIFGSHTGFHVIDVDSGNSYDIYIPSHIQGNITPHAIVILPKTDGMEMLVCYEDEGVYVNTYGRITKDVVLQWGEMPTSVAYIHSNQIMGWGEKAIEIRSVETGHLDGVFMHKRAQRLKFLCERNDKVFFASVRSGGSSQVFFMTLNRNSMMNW
UniProt P51580: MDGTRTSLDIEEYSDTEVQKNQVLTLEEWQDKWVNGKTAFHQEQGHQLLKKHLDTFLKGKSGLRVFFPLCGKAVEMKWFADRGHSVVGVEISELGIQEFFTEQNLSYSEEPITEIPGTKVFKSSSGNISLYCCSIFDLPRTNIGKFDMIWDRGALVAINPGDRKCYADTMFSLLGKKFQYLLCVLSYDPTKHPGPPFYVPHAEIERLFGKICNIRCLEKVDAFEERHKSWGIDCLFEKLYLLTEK
UniProt Q9NUP7: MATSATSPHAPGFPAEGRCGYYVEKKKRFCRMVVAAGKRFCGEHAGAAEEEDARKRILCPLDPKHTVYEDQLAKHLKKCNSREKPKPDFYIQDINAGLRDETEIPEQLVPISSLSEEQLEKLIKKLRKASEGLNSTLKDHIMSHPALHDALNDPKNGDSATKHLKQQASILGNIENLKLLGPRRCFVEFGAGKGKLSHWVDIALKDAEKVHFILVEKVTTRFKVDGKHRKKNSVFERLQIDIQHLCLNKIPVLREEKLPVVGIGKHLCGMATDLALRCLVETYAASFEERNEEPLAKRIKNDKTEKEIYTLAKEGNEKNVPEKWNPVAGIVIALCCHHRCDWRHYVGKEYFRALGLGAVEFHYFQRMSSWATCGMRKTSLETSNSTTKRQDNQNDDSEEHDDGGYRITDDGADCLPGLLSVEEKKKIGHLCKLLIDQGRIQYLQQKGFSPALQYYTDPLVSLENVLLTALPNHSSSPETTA
UniProt Q96Q05, whole entry, looked up: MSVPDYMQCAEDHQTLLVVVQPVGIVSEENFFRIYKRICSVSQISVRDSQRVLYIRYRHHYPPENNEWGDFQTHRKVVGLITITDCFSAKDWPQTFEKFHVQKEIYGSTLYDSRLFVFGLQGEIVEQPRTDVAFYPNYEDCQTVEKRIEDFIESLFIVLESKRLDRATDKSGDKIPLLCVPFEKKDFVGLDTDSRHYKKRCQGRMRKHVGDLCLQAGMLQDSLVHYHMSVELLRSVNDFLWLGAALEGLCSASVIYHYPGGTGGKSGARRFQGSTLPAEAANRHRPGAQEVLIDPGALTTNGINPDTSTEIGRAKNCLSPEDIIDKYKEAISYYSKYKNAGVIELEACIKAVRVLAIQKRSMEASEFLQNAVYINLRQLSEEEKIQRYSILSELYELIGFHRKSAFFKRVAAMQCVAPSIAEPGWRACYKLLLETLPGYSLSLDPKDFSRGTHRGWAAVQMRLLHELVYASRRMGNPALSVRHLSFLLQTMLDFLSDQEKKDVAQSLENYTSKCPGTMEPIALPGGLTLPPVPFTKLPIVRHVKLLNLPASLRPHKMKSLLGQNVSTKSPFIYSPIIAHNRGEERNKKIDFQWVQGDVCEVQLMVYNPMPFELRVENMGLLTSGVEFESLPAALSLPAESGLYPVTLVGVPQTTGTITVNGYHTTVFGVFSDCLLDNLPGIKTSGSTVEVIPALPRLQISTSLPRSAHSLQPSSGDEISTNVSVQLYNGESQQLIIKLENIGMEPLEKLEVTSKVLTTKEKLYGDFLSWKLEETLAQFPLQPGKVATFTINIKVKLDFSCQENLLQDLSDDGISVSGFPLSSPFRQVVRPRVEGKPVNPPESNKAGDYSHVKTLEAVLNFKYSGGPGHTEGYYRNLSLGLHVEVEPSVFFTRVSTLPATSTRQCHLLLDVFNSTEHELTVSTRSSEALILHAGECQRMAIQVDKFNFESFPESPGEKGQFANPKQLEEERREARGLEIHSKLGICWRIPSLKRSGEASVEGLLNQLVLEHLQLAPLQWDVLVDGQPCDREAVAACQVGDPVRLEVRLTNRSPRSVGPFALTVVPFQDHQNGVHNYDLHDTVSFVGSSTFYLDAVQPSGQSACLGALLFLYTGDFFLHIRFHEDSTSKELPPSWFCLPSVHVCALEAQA
UniProt Q8WVT3: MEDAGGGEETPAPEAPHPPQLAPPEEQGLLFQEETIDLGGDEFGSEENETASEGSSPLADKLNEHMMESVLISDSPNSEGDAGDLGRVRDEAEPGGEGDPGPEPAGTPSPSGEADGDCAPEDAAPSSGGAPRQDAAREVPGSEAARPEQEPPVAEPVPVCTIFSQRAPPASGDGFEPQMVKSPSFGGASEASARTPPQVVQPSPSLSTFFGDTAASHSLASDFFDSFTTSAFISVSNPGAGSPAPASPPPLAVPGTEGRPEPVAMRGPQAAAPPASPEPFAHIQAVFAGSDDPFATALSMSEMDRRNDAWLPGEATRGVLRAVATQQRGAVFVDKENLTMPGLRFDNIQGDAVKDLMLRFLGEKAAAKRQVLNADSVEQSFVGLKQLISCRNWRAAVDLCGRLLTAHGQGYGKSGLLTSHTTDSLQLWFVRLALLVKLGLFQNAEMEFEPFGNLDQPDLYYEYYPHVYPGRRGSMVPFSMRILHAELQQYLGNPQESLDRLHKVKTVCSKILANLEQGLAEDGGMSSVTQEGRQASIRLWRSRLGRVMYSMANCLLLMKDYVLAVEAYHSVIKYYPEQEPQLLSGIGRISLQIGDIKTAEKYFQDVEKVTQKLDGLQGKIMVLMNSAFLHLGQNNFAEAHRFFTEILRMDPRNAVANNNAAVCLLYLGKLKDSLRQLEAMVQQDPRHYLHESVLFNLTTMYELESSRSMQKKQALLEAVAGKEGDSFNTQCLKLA

How the values were obtained:
Assay in all cases: log2 fold change, soluble protein after heating vs DMSO (PISA); higher = thermal stabilisation; K562 cells, 10 uM, 30 min; active = over 0.2 and 3.5 SD of the protein, either way, in both replicates (recomputed)
[1] = compound: CS(=O)(=O)c1ccc(-c2cnc(N)c(C(=O)Nc3ccccc3)n2)cc1
Outline: (§1)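 K562 cells at 2×10^6 cells/mL were treated with 10 μM compound for 30 min. Aliquots were heated for 3 min across 48°C-58°C, pooled, and extracted in PBS with 0.5% NP-40 at 4°C; soluble protein was the supernatant after 21,000xg for 90 min. Soluble protein was quantified by TMTpro 16plex LC-MS/MS with channel sums equalised, and reported as log2 fold change in thermal stability against DMSO controls, with values from duplicates.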

crizotinib = compound: C[C@@H](Oc1cc(-c2cnn(C3CCNCC3)c2)cnc1N)c1c(Cl)ccc(F)c1Cl [crizotinib]
Outline: as §1

[2] = compound: C[C@@H]1COCCN1C2=NC(=NC(=C2)C3(CC3)S(=O)(=O)C)C4=C5C=CNC5=CC=C4
Outline: as §1

[3] = compound: C[C@H](C1=CC=C(C=C1)C(=O)NC2=C3C=CNC3=NC=C2)N
Outline: as §1

duvelisib = compound: C[C@H](Nc1ncnc2nc[nH]c12)c1cc2cccc(Cl)c2c(=O)n1-c1ccccc1 [duvelisib]
Outline: as §1

gandotinib = compound: Cc1cc(Nc2cc(CN3CCOCC3)c3nc(C)c(Cc4ccc(Cl)cc4F)n3n2)n[nH]1 [gandotinib]
Outline: as §1

tozasertib = compound: Cc1cc(Nc2cc(N3CCN(C)CC3)nc(Sc3ccc(NC(=O)C4CC4)cc3)n2)n[nH]1 [tozasertib]
Outline: as §1

[4] = compound: Cc1cc(SCc2sc(-c3ccc(C(F)(F)F)cc3)nc2C)ccc1OCC(=O)O
Outline: as §1

doramapimod = compound: Cc1ccc(-n2nc(C(C)(C)C)cc2NC(=O)Nc2ccc(OCCN3CCOCC3)c3ccccc23)cc1 [doramapimod]
Outline: as §1

ispinesib = compound: Cc1ccc(C(=O)N(CCCN)[C@@H](c2nc3cc(Cl)ccc3c(=O)n2Cc2ccccc2)C(C)C)cc1 [ispinesib]
Outline: as §1

bafetinib = compound: Cc1ccc(NC(=O)c2ccc(CN3CC[C@H](N(C)C)C3)c(C(F)(F)F)c2)cc1Nc1nccc(-c2cncnc2)n1 [bafetinib]
Outline: as §1

[5] = compound: Cc1cccc(CC(=O)N2CCc3c2ccc(-c2cn(C)c4ncnc(N)c24)c3F)n1
Outline: as §1

nilotinib = compound: Cc1cn(-c2cc(NC(=O)c3ccc(C)c(Nc4nccc(-c5cccnc5)n4)c3)cc(C(F)(F)F)c2)cn1 [nilotinib]
Outline: as §1

[6] = compound: Cc1nc(Nc2n[nH]c3c2CN(C(=O)N[C@H](CN(C)C)c2ccccc2)C3(C)C)c2sccc2n1
Outline: as §1

dasatinib = compound: Cc1nc(Nc2ncc(C(=O)Nc3c(C)cccc3Cl)s2)cc(N2CCN(CCO)CC2)n1 [dasatinib]
Outline: as §1

[7] = compound: Cc1ncc(-c2ccnc(Nc3ccc(S(C)(=O)=O)cc3)n2)n1C(C)C
Outline: as §1

[8] = compound: Cn1cc(-c2ccc3c(c2)CCN3C(=O)Cc2cccc(C(F)(F)F)c2)c2c(N)ncnc21
Outline: as §1

[9] = compound: Cn1cc(-c2ccc3nnc(C(F)(F)c4ccc5ncccc5c4)n3n2)cn1
Outline: as §1

tipifarnib = compound: Cn1cncc1[C@@](N)(c1ccc(Cl)cc1)c1ccc2c(c1)c(-c1cccc(Cl)c1)cc(=O)n2C [tipifarnib]
Outline: as §1

mubritinib = compound: FC(F)(F)c1ccc(/C=C/c2nc(COc3ccc(CCCCn4ccnn4)cc3)co2)cc1 [mubritinib]
Outline: as §1

Measured: log2 fold change

TRPV2 (UniProt Q9Y5S1)
inactive: [1] 0.01 | crizotinib 0.055 | [2] 0.071 | [3] -0.052 | duvelisib 0.05 | gandotinib -0.129 | tozasertib 0.011 | [4] 0.009 | doramapimod 0.025 | ispinesib 0.135 | bafetinib -0.178 | [5] 0.023 | nilotinib -0.039 | [6] -0.005 | dasatinib -0.022 | [7] 0.007 | [8] 0.025 | [9] 0.008 | tipifarnib -0.061 | mubritinib 0.003

TRIP4 (UniProt Q15650)
inactive: [1] -0.07 | crizotinib -0.07 | [2] -0.134 | [3] 0.084 | duvelisib -0.004 | gandotinib 0.026 | tozasertib -0.014 | [4] 0.032 | doramapimod 0.045 | ispinesib -0.124 | bafetinib -0.03 | [5] 0.015 | nilotinib -0.052 | [6] -0.05 | dasatinib -0.017 | [7] 0.014 | [8] -0.02 | [9] -0.096 | tipifarnib -0.051 | mubritinib -0.088

TOP1 (UniProt P11387)
inactive: [1] 0.045 | crizotinib -0.137 | [2] 0.042 | [3] 0.645 | duvelisib -0.064 | gandotinib 0.033 | tozasertib -0.072 | [4] 0.107 | doramapimod 0.201 | ispinesib -0.207 | bafetinib 0.07 | [5] -0.095 | nilotinib -0.037 | [6] 0.236 | dasatinib -0.014 | [7] 0.036 | [8] -0.162 | [9] -0.025 | tipifarnib 0.076 | mubritinib -0.13

TOR1B (UniProt O14657)
inactive: [1] -0.007 | crizotinib 0.027 | [2] -0.013 | [3] 0.021 | duvelisib -0.086 | gandotinib 0.058 | tozasertib 0.012 | [4] 0.01 | doramapimod 0.017 | ispinesib -0.01 | bafetinib -0.041 | [5] -0.057 | nilotinib -0.095 | [6] 0.016 | dasatinib 0.006 | [7] -0.057 | [8] -0.007 | [9] -0.025 | tipifarnib 0.061 | mubritinib -0.068

TRAF2 (UniProt Q12933)
inactive: [1] 0.028 | crizotinib 0.011 | [2] 0.027 | [3] -0.029 | duvelisib 0.024 | gandotinib -0.028 | tozasertib 0.035 | [4] -0.002 | doramapimod -0.008 | ispinesib 0.028 | bafetinib -0.027 | [5] -0.024 | nilotinib 0.004 | [6] -0.018 | dasatinib -0.033 | [7] -0.014 | [8] 0.026 | [9] -0.008 | tipifarnib -0.01 | mubritinib 0.027

TRMT1L (UniProt Q7Z2T5)
inactive: [1] -0.06 | crizotinib 0.032 | [2] -0.534 | [3] 0.424 | duvelisib -0.232 | gandotinib 0.275 | tozasertib 0.003 | [4] 0.002 | doramapimod 0.306 | ispinesib -0.161 | bafetinib 0.236 | [5] 0.035 | nilotinib -0.035 | [6] 0.15 | dasatinib 0.124 | [7] -0.016 | [8] -0.328 | [9] -0.193 | tipifarnib 0.158 | mubritinib -0.107

TNIK isoform 6 (UniProt Q9UKE5)
inactive: [1] -0.053 | crizotinib -0.034 | [2] -0.037 | [3] -0.034 | duvelisib -0.036 | gandotinib 0.011 | tozasertib -0.033 | [4] 0.009 | doramapimod 0.023 | ispinesib -0.048 | bafetinib -0.023 | [5] 0.006 | nilotinib -0.043 | [6] 0.033 | dasatinib -0.083 | [7] 0.093 | [8] 0.02 | [9] -0.051 | tipifarnib 0.019 | mubritinib 0.005

TPMT (UniProt P51580)
inactive: [1] 0.011 | crizotinib 0.087 | [2] 0.045 | [3] -0.063 | duvelisib 0.055 | gandotinib 0 | tozasertib 0.011 | [4] -0.028 | doramapimod -0.06 | ispinesib 0.022 | bafetinib -0.035 | [5] 0.023 | nilotinib 0.053 | [6] -0.052 | dasatinib 0.013 | [7] 0.01 | [8] 0.049 | [9] 0.016 | tipifarnib -0.047 | mubritinib 0.026

TPP2 (UniProt P29144)
inactive: [1] 0.083 | crizotinib -0.05 | [2] -0.399 | [3] 0.277 | duvelisib -0.207 | gandotinib 0.081 | tozasertib 0.007 | [4] 0.079 | doramapimod 0.157 | ispinesib -0.211 | bafetinib 0.242 | [5] 0.063 | nilotinib 0.08 | [6] 0.116 | dasatinib 0.041 | [7] -0.044 | [8] -0.288 | [9] -0.134 | tipifarnib 0.134 | mubritinib -0.276

TRMT13 (UniProt Q9NUP7)
inactive: [1] -0.039 | crizotinib 0.038 | [2] -0.045 | [3] -0.066 | duvelisib 0.028 | gandotinib -0.201 | tozasertib 0.03 | [4] 0.03 | doramapimod 0.015 | ispinesib 0.015 | bafetinib -0.056 | [5] -0.016 | nilotinib -0.06 | [6] 0.03 | dasatinib -0.051 | [7] 0.054 | [8] 0.01 | [9] 0.032 | tipifarnib 0.026 | mubritinib -0.004

TRAPPC9 isoform 2 (UniProt Q96Q05)
inactive: [1] 0.05 | crizotinib -0.096 | [2] 0.033 | [3] 0.017 | duvelisib 0.04 | gandotinib -0.049 | tozasertib 0.038 | [4] 0.001 | doramapimod 0.031 | ispinesib -0.014 | bafetinib 0.016 | [5] 0.047 | nilotinib -0.035 | [6] 0.031 | dasatinib -0.107 | [7] -0.006 | [8] -0.006 | [9] -0.011 | tipifarnib 0.019 | mubritinib 0.124

TRIM25 (UniProt Q14258)
inactive: [1] -0.056 | crizotinib 0.031 | [2] -0.312 | [3] 0.13 | duvelisib -0.061 | gandotinib 0.135 | tozasertib 0.028 | [4] 0.117 | doramapimod 0.138 | ispinesib -0.061 | bafetinib 0.143 | [5] -0.023 | nilotinib -0.007 | [6] -0.016 | dasatinib -0.06 | [7] 0.14 | [8] -0.218 | [9] -0.168 | tipifarnib 0.018 | mubritinib -0.148

TRAPPC12 (UniProt Q8WVT3)
inactive: [1] -0.002 | crizotinib -0.03 | [2] -0.021 | [3] 0.071 | duvelisib 0.017 | gandotinib -0.124 | tozasertib 0.027 | [4] 0.039 | doramapimod 0.02 | ispinesib -0.075 | bafetinib -0.035 | [5] 0.044 | nilotinib -0.07 | [6] -0.068 | dasatinib -0.203 | [7] -0.003 | [8] -0.017 | [9] -0.034 | tipifarnib -0.123 | mubritinib 0.028

TPM4, A0A2R8Y5V9
inactive: [1] 0.014 | crizotinib -0.004 | [2] -0.025 | [3] -0.086 | duvelisib 0.084 | gandotinib -0.049 | tozasertib -0.028 | [4] -0.055 | doramapimod 0.016 | ispinesib -0.051 | bafetinib -0.052 | [5] -0.017 | nilotinib 0.009 | [6] -0.005 | dasatinib 0.078 | [7] -0.024 | [8] -0.003 | [9] -0.042 | tipifarnib 0.018 | mubritinib 0.044

TRUB1 (UniProt Q8WWH5)
inactive: [1] -0.009 | crizotinib 0.102 | [2] 0.028 | [3] -0.039 | duvelisib 0.003 | gandotinib -0.129 | tozasertib 0.014 | [4] -0.047 | doramapimod -0.027 | ispinesib 0.01 | bafetinib -0.035 | [5] 0.022 | nilotinib -0.038 | [6] -0.051 | dasatinib -0.022 | [7] -0.005 | [8] 0.033 | [9] 0.032 | tipifarnib -0.02 | mubritinib 0.004

Fetched one by one from the list above, two records:
TRIP4 (UniProt Q15650)
inactive: [1] -0.07 | crizotinib -0.07 | [2] -0.134 | [3] 0.084 | duvelisib -0.004 | gandotinib 0.026 | tozasertib -0.014 | [4] 0.032 | doramapimod 0.045 | ispinesib -0.124 | bafetinib -0.03 | [5] 0.015 | nilotinib -0.052 | [6] -0.05 | dasatinib -0.017 | [7] 0.014 | [8] -0.02 | [9] -0.096 | tipifarnib -0.051 | mubritinib -0.088

TPMT (UniProt P51580)
inactive: [1] 0.011 | crizotinib 0.087 | [2] 0.045 | [3] -0.063 | duvelisib 0.055 | gandotinib 0 | tozasertib 0.011 | [4] -0.028 | doramapimod -0.06 | ispinesib 0.022 | bafetinib -0.035 | [5] 0.023 | nilotinib 0.053 | [6] -0.052 | dasatinib 0.013 | [7] 0.01 | [8] 0.049 | [9] 0.016 | tipifarnib -0.047 | mubritinib 0.026

Later entries:

TRIM33 (UniProt Q9UPN9)
inactive: [1] 0.215 | crizotinib 0.072 | [2] 0 | [3] -0.115 | duvelisib 0.087 | gandotinib 0 | tozasertib 0.121 | [4] 0.173 | doramapimod 0.021 | ispinesib -0.043 | bafetinib -0.022 | [5] 0.015 | nilotinib -0.034 | [6] 0.088 | dasatinib -0.299 | [7] 0.038 | [8] -0.061 | [9] 0.09 | tipifarnib -0.044 | mubritinib -0.048
